63 compounds from PubChem BioAssay AID445 (National Center for Advancing Translational Sciences (NCATS), 2006) can be followed below.

The list shows a part of the results. These are further read-outs of the screen, such as a control signal, another cell line or another target. No call is given for them. The list favours compounds with an active or inconclusive main result. The note in brackets gives the kind of curve behind each potency; many fits are weak.

The assay is described as follows: IkB Signaling. Conditions: ABC-DLBCL IkBa-CBG/CBR dual luciferase ratio (green luciferase fused to IkBa over red control in OCI-Ly3 lymphoma cells), 4 h; measured here: control luc red channel unless noted. In short, it runs like this: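 Luminescence ratio of IκBα-fused green versus native red beetle luciferase in OCI-Ly3 cells, 4 h post-doxycycline with compound; red signal alone, scaled from basal (0%) to zero light (-100%), flagged nonspecific or cytotoxic effects.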
A word on the AC50: it is the midpoint of the concentration-response curve, whichever way the signal moves. As for `COc1ccc(C)cc1NS(=O)(=O)c1cc2c3c(c1)CC(=O)N3CCC2`, the concentration at half-maximal activity (AC50) was 2.51 µM [rising, partial curve]. The result for `COc1ccc(-n2c(=O)c3ccccc3n(CC(=O)NCCc3ccc(OC)c(OC)c3)c2=O)cc1` reads 0.158 µM [rising, full curve, poor fit]; that for `COc1cc2c(cc1OC)C(COc1cc(C)cc(C)c1)N(C(=O)COc1ccccc1)CC2` (stereo not drawn), 25.1 µM [falling, partial curve]. For the compound `Cc1ccc(NC(=O)C(=O)c2cc(C)n(-c3ccc(F)cc3)c2C)cc1C`, the AC50 is 10 µM [falling, partial curve]. Turning to `CCOc1ccc(NC(=O)C2CCCN(S(=O)(=O)c3ccc4[nH]c(=O)ccc4c3)C2)cc1` (stereo not drawn), the AC50 is 0.2 µM [rising, full curve, poor fit]. With `COc1cccc(-n2ccn(CC(=O)c3ccc(F)cc3)c(=O)c2=O)c1`, the half-maximal activity concentration (AC50) is 10 µM [falling, partial curve]. To `COc1ccccc1N1CCN(C(=O)CSc2nc3ccccc3nc2Cc2ccccc2)CC1` belongs 25.1 µM [falling, partial curve]. To `Cc1ccc(CSC2=Nc3ccccc3C3=NC(CC(=O)NC4CCCCC4)C(=O)N23)cc1` (stereo not drawn) belongs 0.398 µM [falling, full curve]. To `COc1ccc(CNC(=O)c2cc(Nc3ccc(C)cc3C)nc3ccccc23)cc1` belongs 1 µM [falling, partial curve]; to `CCCN(CCC)S(=O)(=O)c1ccc2c(c1)N(CC(=O)NC(C)c1ccccc1)C(=O)CS2` (stereo not drawn), 25.1 µM [falling, partial curve]; to `CCN(c1cccc(C)c1)S(=O)(=O)c1nnc(NC(=O)c2ccccc2Cl)s1`, 7.94 µM [falling, partial curve]. Consider `COc1ccccc1N1CCN(C(=O)c2cc(-c3ccc(F)cc3)on2)CC1`, for which the half-maximal activity concentration (AC50) was 20 µM [falling, single point]. To `CC(=O)c1ccc(N2C(=O)N(CC(=O)c3ccc(C)cc3)c3ccccc3S2(=O)=O)cc1` belongs 20 µM [rising, partial curve]. `CCOc1cc2c3c(c1)C1(C(=O)N3C(C)(C)C=C2C)C(C#N)=C(N)Oc2cc(O)ccc21` (stereo not drawn): the AC50 was 12.6 µM [falling, partial curve]. On to `COc1ccc(CCNC(=O)C(=O)NCC(c2ccc3c(c2)OCO3)N2CCOCC2)cc1OC` (stereo not drawn), for which the concentration at half-maximal activity (AC50) is 0.158 µM [falling, full curve, poor fit]. For the compound `Cc1cccn2c(=O)c(C(=O)NCCc3ccccc3)c(O)nc12`, the AC50 is 25.1 µM [falling, single point].

For `CC(=O)Nc1ccc(Oc2cc(C#N)c(C#N)cc2N2CCCCCC2)cc1`, the concentration at half-maximal activity (AC50) was 15.8 µM [falling, partial curve]. To `CCOc1ccc(NC(=O)c2oc3ccccc3c2NC(=O)c2c(F)cccc2F)cc1` belongs 10 µM [falling, partial curve]. The result for `CCOc1ccc2c(c1)NC(c1cccs1)=NC(c1ccc(F)cc1)=N2` reads 39.8 µM [falling, single point]; that for `COc1ccc2occ(CC(=O)Nc3ccc(S(=O)(=O)Nc4nc(C)cc(C)n4)cc3)c2c1`, 7.94 µM [falling, partial curve]. For `COc1ccc(C2C(C(=O)Nc3ccc(C)cc3C)=C(C)Nc3nc4ccccc4n32)c(OC)c1` (stereo not drawn), the half-maximal activity concentration (AC50) is 25.1 µM [falling, single point]. The result for `COC(=O)c1cc(NC(=O)Cn2nc(-c3ccc(C)c(C)c3)ccc2=O)cc(C(=O)OC)c1` reads 20 µM [falling, single point]; that for `O=C(CN1C(=O)COc2ccc(S(=O)(=O)Nc3ccccc3)cc21)Nc1cccc(Cl)c1`, 10 µM [falling, partial curve]; that for `COC(=O)c1ccc(Cn2nnc3c(=O)[nH]c(C4CCCN(S(=O)(=O)c5cccc(Cl)c5)C4)nc32)cc1` (stereo not drawn), 31.6 µM [falling, single point]. Regarding `Cc1nc(SCN2C(=O)c3ccccc3C2=O)n[nH]1`, the half-maximal activity concentration (AC50) was 25.1 µM [rising, partial curve]. To `Cc1nn(-c2ccccc2)c2c1C1(C(=O)N(C)c3ccccc31)N(c1ccccc1)C(=O)N2` (stereo not drawn) belongs 12.6 µM [falling, partial curve]; to `CCc1c(-c2ccccc2)nc2ccccc2c1C(=O)NCc1ccc(C)cc1`, 10 µM [falling, partial curve]. To `CCOc1ccc(C(=O)N2CCC(c3noc(-c4ccc(S(=O)(=O)N5CCCC5)cc4)n3)CC2)cc1` belongs 3.98 µM [falling, full curve, poor fit]. To `CCC(=O)N1CCc2cc(S(=O)(=O)Nc3ccc4c(c3)OCCO4)ccc21` belongs 15.8 µM [falling, partial curve].

Regarding `CCN(C(=O)COC(=O)c1cccnc1SC)C1CCS(=O)(=O)C1` (stereo not drawn), the half-maximal activity concentration (AC50) was 25.1 µM [falling, partial curve].

As to `Cc1cc2c(cc1S(=O)(=O)CCC(=O)NCCc1ccccc1)OCC(=O)N2`, the AC50 was 12.6 µM [falling, partial curve]. With `Cc1ccc(NC(=O)CN2CCSc3ccc(S(=O)(=O)N4CCCC4)cc32)cc1C`, the half-maximal activity concentration (AC50) is 1.26 µM [falling, partial curve]. The result for `COc1cc(OC)c(NS(=O)(=O)c2cc(-c3cnc(C4CC4)o3)ccc2C)cc1Cl` reads 39.8 µM [falling, partial curve]. To `Cc1ccccc1CSc1ncc(CO)n1Cc1ccc(F)cc1` belongs 20 µM [falling, partial curve]; to `COc1ccc(-c2cn3cccnc3n2)cc1NC(=O)c1cc(C)cc(C)c1`, 39.8 µM [falling, single point]. Regarding `Cc1cc(Cl)ccc1OCC(=O)N(Cc1ccco1)Cc1ccco1`, the half-maximal activity concentration (AC50) was 39.8 µM [falling, partial curve]. With `Cc1ccccc1Cc1c(C)nc2nc(SCC(=O)NCc3ccco3)nn2c1C`, the AC50 is 12.6 µM [falling, partial curve]. Regarding `Cc1ccc(-n2ncc(C(=O)N3CCN(c4ccc(Cl)cc4)CC3)c2C2CCN(C(=O)OC(C)(C)C)CC2)c(C)c1`, the AC50 is 25.1 µM [falling, single point]. To `CCOC(=O)c1ccc(NC(=O)c2ccc(=O)n(Cc3cccc(C)c3)c2)cc1` belongs 25.1 µM [falling, partial curve]. The result for `O=C(NCCOCCn1c(=O)oc2ccccc21)Nc1ccc(F)cc1` reads 25.1 µM [falling, partial curve]; that for `CC(C)N(Cc1ccccc1)C(=O)CCS(=O)(=O)c1ccc2c(c1)oc(=O)n2C`, 25.1 µM [falling, single point]. With `Cc1cc(/N=C/C=C2\N(C)c3ccccc3C2(C)C)n(CCC#N)n1`, the AC50 is 25.1 µM [falling, single point]. With `Cc1ccc(Cn2c(C)c(CNCCCc3ccccc3)c(C(=O)O)c2C)cc1`, the AC50 is 25.1 µM [falling, single point]. As for `CCCCNC(=O)CSc1nnc(C)c2c(C)n(-c3ccccc3)nc12`, the AC50 is 2.51 µM [falling, full curve].

Take `COc1ccc2c(c1)c1ncnc(N3CCN(Cc4ccc5c(c4)OCO5)CC3)c1n2C`: the concentration at half-maximal activity (AC50) was 10 µM [falling, partial curve]. As to `CCC1CN(C(=O)N2CCC(C(=O)NCc3ccccc3C)CC2)c2ccccc2O1` (stereo not drawn), the AC50 was 12.6 µM [falling, partial curve]. The result for `Cc1ccc(-c2noc(CNC(=O)c3ccccc3)n2)cc1` reads 3.16 µM [rising, full curve, poor fit]; that for `CC(C)OCCCNc1ncnc2c1[nH]c1ccccc12`, 15.8 µM [falling, partial curve]. For the compound `Cc1ccc(-c2cc3c(n2-c2ccc(C)cc2)CC(C)(C)CC3=O)cc1`, the AC50 was 2 µM [falling, full curve, poor fit].

`Cc1cc(=O)n2[nH]c(C)c(-c3ccccc3)c2n1`: the AC50 is 25.1 µM [falling, partial curve].

As to `Cc1ccc(C2=NN(CC(=O)NCCN(CC(C)C)CC(C)C)C(=O)CC2)cc1`, the AC50 was 2 µM [falling, partial curve]. In the case of `CC(C)NC(=O)C1CCN(c2nc3ccccc3nc2C(F)(F)F)CC1`, the concentration at half-maximal activity (AC50) is 2 µM [rising, partial curve].

For `Cn1cc(/C(Cc2ccccc2)=N\O)c2ccccc21`, the AC50 is 0.316 µM [rising, full curve]. To `Cc1cccc(N(C)C(=O)CCNS(=O)(=O)c2ccc3c(c2)CCN3C(=O)C2CC2)c1` belongs 0.0501 µM [falling, full curve, poor fit]; to `Cn1ncc2c(Nc3cccc(F)c3)ncnc21`, 25.1 µM [rising, partial curve]; to `COC(=O)CCn1cnc2onc(-c3cc(F)cc(F)c3)c2c1=O`, 6.31 µM [falling, partial curve]. Take `CC(C)Sc1ncc(Cl)c(C(=O)Nc2ccc(S(=O)(=O)N(C)c3ccccc3)cc2)n1`: the concentration at half-maximal activity (AC50) is 20 µM [falling, single point]. The result for `O=C(CN1CCC(n2nnc3cc(F)ccc32)CC1)Nc1ccc2c(c1)CCC2` reads 25.1 µM [falling, single point]; that for `O=C(Nc1c(C(=O)Nc2ccccc2F)oc2ccccc12)c1cc2ccccc2o1`, 0.158 µM [falling, partial curve].

On to `COc1cc(NC(=O)CN2CCN(CC(=O)Nc3ccc(F)cc3)CC2)cc(OC)c1`, for which the AC50 was 31.6 µM [falling, single point].

With `CCO/C(C)=C1\C(=O)N(CC)c2ccccc21`, the concentration at half-maximal activity (AC50) was 3.98 µM [rising, full curve, poor fit]. For the compound `Cc1ccc(-n2ncc3c(N4CCC(Cc5ccccc5)CC4)ncnc32)cc1`, the concentration at half-maximal activity (AC50) was 15.8 µM [falling, partial curve]. As to `O=C(c1ccc2c(c1)N(Cc1ccccc1F)C(=O)c1ccccc1S2=O)N1CCOCC1` (stereo not drawn), the AC50 was 2.51 µM [rising, full curve].
